The campaign covered roughly 300,000 compounds. About 3,700 (1.2%) were called active. Inconclusive results, whose numbers are uncertain, are shown with a selection of clear calls. The call rests on the fitted dose curve; tested in HEK293 cells. Where the call is inconclusive, the potency comes from a doubtful curve fit.
Test: qHTS for Inhibitors of binding or entry into cells for Lassa Virus; further: nearly all actives have a fitted effect of over 50% in size
Conditions: Lassa virus pseudotype entry inhibition, cell reporter; activity change, negative = inhibition: at 37.9 µM (top of the series) unless noted
On the % scale 0 is the no-effect control and ±100 the full control effect; potency means the concentration at half of the fitted maximal effect.

SMILES	Potency	activity change, negative = inhibition
CCN1c2ccccc2-c2nc(SCC(=O)Nc3cc(F)ccc3F)ncc2S1(=O)=O	inconclusive: 35.5 µM [inhibitor, single point]	–
N/C(=N\N=C\c1ccc2c(c1)OCO2)SC1CC(=O)N(c2ccc(C(=O)O)cc2)C1=O (configuration not stated)	inconclusive: 5.01 µM [activator, full curve, poor fit]	–
Cc1cccc(NC(=S)NC(=O)CCc2ccccc2)c1C	inconclusive: 0.411 µM [inhibitor, full curve, poor fit]	–
CCCc1ccc(-c2ccc(/C=C/C(=O)O)cc2)nc1	active: 0.461 µM	–
CCOc1ccc(C2C(=O)N(C3CCCCCC3)CC(=O)N2CCc2ccc(Cl)cc2)cc1OC (configuration not stated)	inconclusive: 10 µM [inhibitor, single point]	–
COc1ccc2[nH]cc(CCn3ccc(O)c(C/C=C/c4ccccc4)c3=O)c2c1	inconclusive: 3.98 µM [inhibitor, partial curve, poor fit]	–
COc1c2c(nc3occc13)C(CC=C(C)C)(OC)C(OC(C)=O)CC2 (configuration not stated)	inconclusive: 0.794 µM [inhibitor, partial curve, poor fit]	–
Cc1ccc(S(=O)(=O)N2CCN(c3nc(C)c4c(c3C#N)CC(C)(C)OC4)CC2)cc1	inconclusive: 22.4 µM [inhibitor, partial curve, poor fit]	–
Cc1[nH]c2ccccc2c1/C=C/c1nc2ccccc2c(=O)n1-c1cccc([N+](=O)[O-])c1	inconclusive: 1.03 µM [activator, full curve, poor fit]	–
COc1ccc(/C=C/C(=O)c2cc(F)ccc2OC(=O)c2ccc(OC)c(OC)c2)cc1OC	inconclusive: 29.1 µM [inhibitor, single point]	–
O=C(NCc1ccc(F)cc1)C(=O)NCC(c1ccco1)S(=O)(=O)c1cccs1 (configuration not stated)	–	inactive: -1.15% [at 46.1 µM]
Fc1ccc(N2CCN(C(c3cccs3)c3nnnn3C3CCCC3)CC2)cc1 (configuration not stated)	inconclusive: 14.6 µM [inhibitor, partial curve]	–
CCC(C(=O)Nc1cccc(C#N)c1)n1nc(-c2ccccc2)ccc1=O (configuration not stated)	–	inactive: -7.96% [at 46.1 µM]
CC1=C(C(=O)O)N2C(=O)C(NC(=O)CCCC(=O)O)C2SC1 (configuration not stated)	–	inactive: -0.856%
Cc1ccc(NC(=O)Cn2cc(C(=O)C3CCCCC3)c3ccccc32)c(C)c1	–	inactive: -8.23% [at 46.1 µM]
Cc1nn(CC(=O)N(C)c2c(N)n(Cc3ccccc3)c(=O)[nH]c2=O)c(C)c1[N+](=O)[O-]	–	inactive: 13.4%
O=C(OCC(=O)c1c[nH]c2ccccc12)C1=COCCO1	–	inactive: -0.0803%
COc1ccc(-c2csc(NC(=O)C3=COCCO3)n2)cc1OC	inconclusive: 1.12 µM [activator, partial curve]	–
O=C(NC(=S)Nc1ccc2[nH]c(=O)[nH]c2c1)c1cccc(F)c1	inconclusive: 1.78 µM [inhibitor, single point]	–
O=C(Nc1ccc2c(c1)OCO2)c1cc(-c2cccc(O)c2)on1	inconclusive: 7.94 µM [inhibitor, partial curve, poor fit]	–
CS(=O)(=O)N1CCN=C1SCc1ccc([N+](=O)[O-])cc1	–	inactive: 3.37%

SMILES	Potency	activity change, negative = inhibition
Cc1ccc(S(=O)(=O)Nc2cccc(C(=O)NCC(c3ccco3)N3CCCC3)c2)cc1F (configuration not stated)	inconclusive: 31.6 µM [inhibitor, single point]	–
COCCSc1nnc(NC(=O)CSc2ccccc2)s1	–	inactive: -13%
CCOC(=O)N1CCC(NC(=S)Nc2ccc3nc(N4CCN(C)CC4)cc(C)c3c2)CC1	–	inactive: 21.6%
O=C(CSc1ccc(Cl)cc1)Nc1ccccc1N1CCN(C(=O)c2ccccc2)CC1	active: 15.8 µM	–
COc1ccc(CCC(=O)Nc2cccc(S(=O)(=O)N3CCCCCC3)c2)cc1	inconclusive: 35.5 µM [inhibitor, single point]	–
CCc1c(C(C)S(=O)(=O)c2ccccc2)[nH]c(=O)n1CC (configuration not stated)	–	inactive: 2.71%
O=C(c1ccco1)N1CCN(c2ncnc3scc(-c4ccc(F)cc4)c23)CC1	inconclusive: 11.2 µM [inhibitor, partial curve]	–
CC(C)(C)NC(=O)C(c1ccccc1)N(C(=O)CNC(=O)c1cccs1)c1cccnc1 (configuration not stated)	–	inactive: 12.6% [at 46.1 µM]
CN1C/C(=C/c2ccccc2[N+](=O)[O-])C(=O)/C(=C\c2ccccc2[N+](=O)[O-])C1	active: 8.91 µM	–
CC(C)(C)C(=O)Nc1ccc(-c2nc3ccccc3c(=O)o2)cc1	inconclusive: 35.5 µM [inhibitor, partial curve, poor fit]	–
Cc1cccc(N2CCN(C(=O)CSCc3c(C)noc3C)CC2)c1C	inconclusive: 6.31 µM [inhibitor, partial curve, poor fit]	–
COc1cc(OC)cc(-c2nnc(NC(=O)CCS(=O)(=O)c3ccc(C)cc3)o2)c1	inconclusive: 14.1 µM [inhibitor, single point]	–
CCC(c1nnnn1Cc1ccco1)N(Cc1cc2cc(OC)ccc2[nH]c1=O)C1CCCCC1 (configuration not stated)	inconclusive: 11.2 µM [inhibitor, partial curve]	–
COc1ccc(C(=O)Nc2ccc(NC(=O)c3cccc(F)c3)cn2)cc1	–	inactive: 1.46%
CC(=O)c1cc2c(cc1NC(=O)CCc1ccccc1)OCO2	–	inactive: 15.9%
CC(=O)N1Cc2ccccc2CC1C(=O)OCC(=O)c1c(N)n(C)c(=O)n(C)c1=O (configuration not stated)	inconclusive: 0.708 µM [inhibitor, partial curve, poor fit]	–
CCOC(=O)C(=O)NNc1cccc(C)c1C	inconclusive: 7.94 µM [activator, partial curve, poor fit]	–
Cc1cccc(NC(=O)Cn2c(C)c(C#N)c3ccccc32)c1C	inconclusive: 0.708 µM [inhibitor, full curve, poor fit]	–
O=C(CCN1C(=O)C2CCCCC2C1=O)Nc1nc(-c2ccc(F)c(F)c2)cs1 (configuration not stated)	inconclusive: 0.316 µM [activator, partial curve, poor fit]	–
COc1ccc(CCNC(=O)Cn2nc(C)c3c(C)n(-c4ccc(C)cc4)nc3c2=O)c(OC)c1	inconclusive: 20 µM [inhibitor, single point]	–
C=CCNC(=S)N/N=C/c1ccc(N(CC)Cc2ccccc2)cc1	active: 16.4 µM	–

Quoted from the listing.
`COc1ccc2[nH]cc(CCn3ccc(O)c(C/C=C/c4ccccc4)c3=O)c2c1` – Potency: inconclusive: 3.98 µM [inhibitor, partial curve, poor fit]
`CC(C)(C)C(=O)Nc1ccc(-c2nc3ccccc3c(=O)o2)cc1` – Potency: inconclusive: 35.5 µM [inhibitor, partial curve, poor fit]
`CCOC(=O)C(=O)NNc1cccc(C)c1C` – Potency: inconclusive: 7.94 µM [activator, partial curve, poor fit]

Reference: PubChem BioAssay AID540256 (National Center for Advancing Translational Sciences (NCATS), 2011)
